Reference: the supplement of paper PMC12889115
The other results are listed elsewhere or left out. Values are raw readings; no control value is given beside them.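 First-pass screen: polymyxin B was added at a level that permeabilizes the Salmonella outer membrane while sparing the inner membrane. DMSO wells, with and without polymyxin B, defined maximum growth. Because plates differed from one another, each plate's data were ranked separately and the compounds with the lowest OD600 were carried forward as hits.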

Tested on: Salmonella enterica serovar Typhimurium SL1344
Test: bacterial growth OD600 after 18 h with compound and polymyxin B; higher = more bacterial growth (less inhibition)
Settings: 50 µM, Mueller-Hinton broth

| SMILES | bacterial growth OD600 (polymyxin B 1 µg/mL) | bacterial growth OD600 (polymyxin B 0.75 µg/mL) |
| --- | --- | --- |
| COCCN1CCN(C(=O)C2CCC(=O)N(CCc3ccc(Cl)cc3)C2)CC1 (stereo unspecified) | 0.918 | – |
| CCc1ocnc1C(=O)N1CCC(C2CCN(Cc3cccc(F)c3F)CC2)C1 (stereo unspecified) | – | 0.929 |
| Cc1cc(CN(C)C(=O)c2coc(COc3ccc(F)cc3Cl)n2)on1 | 0.62 | – |
| OCCOc1cccc(CN2CCOc3ccc(CN4CCC(Oc5cccnc5)CC4)cc3C2)c1 | – | 0.791 |
| Cc1cc(C(=O)N2CCC(n3nccc3NC(=O)c3cccc(F)c3)CC2)c(C)o1 | 0.816 | – |
| COc1ccc2c(c1)SC(c1ccc3c(c1)OCO3)CCN2Cc1ccc2ncccc2c1 (stereo unspecified) | – | 0.024 |
| COC(=O)CC1C(=O)NCCN1Cc1nc(-c2cc3c(cc2Cl)OCO3)oc1C (stereo unspecified) | 0.851 | – |
| O=C(CCC1CCCN(C(=O)CCN2CCCCO2)C1)N1CCN(c2ccccn2)CC1 (stereo unspecified) | 1.03 | – |
| Cc1oc(-c2cc3c(cc2Cl)OCO3)nc1CN(C)Cc1ccc(C(F)(F)F)cc1 | 0.948 | – |
| C=CCOc1cccc(C(=O)N2CCC(Cc3ccc(OC)cc3)(C(=O)OCC)CC2)c1 | – | 0.472 |
| O=C(Cn1cncn1)NCc1cccnc1Oc1ccc(F)c(F)c1 | – | 0.849 |
| Cc1ccnn1CCC(=O)NC1CC(=O)N(Cc2ccc(F)cc2)C1 (stereo unspecified) | 0.908 | – |
| O=C(c1coc(COc2cccc(C(F)(F)F)c2)n1)N1CCOCC1 | 0.895 | – |
| C[C@@H]1CN(C2(C(=O)N3CCC(CCO)CC3)Cc3ccccc3C2)C[C@H](C)O1 | – | 0.658 |
| COc1ccc(CNC(=O)CCC2CCCN(Cc3cccc(C(C)=O)c3)C2)c(OC)c1 (stereo unspecified) | 0.893 | – |
| CCOCCCNC1CCN(c2ccc(NC(=O)CCCCc3ccccc3)cc2)CC1 | – | 0.735 |

A second format for some results above:
SMILES | bacterial growth OD600 (polymyxin B 1 µg/mL) | bacterial growth OD600 (polymyxin B 0.75 µg/mL)
OCCOc1cccc(CN2CCOc3ccc(CN4CCC(Oc5cccnc5)CC4)cc3C2)c1 | – | 0.791
C=CCOc1cccc(C(=O)N2CCC(Cc3ccc(OC)cc3)(C(=O)OCC)CC2)c1 | – | 0.472

(continued)

| SMILES | bacterial growth OD600 (polymyxin B 1 µg/mL) | bacterial growth OD600 (polymyxin B 0.75 µg/mL) |
| --- | --- | --- |
| O=C(c1ccc(N2CCCC(CO)C2)nc1)N1CCC(CCn2cccn2)CC1 (stereo unspecified) | – | 0.984 |
| CCCCc1nc(CN2CCc3onc(-c4cccc(F)c4)c3C2)c[nH]1 | – | 0.558 |
| COc1cc(OC)cc(C(=O)NCC2CCCN(C(=O)C3=C(C)OCCO3)C2)c1 (stereo unspecified) | 0.807 | – |
| COC(=O)c1ccc(CN2CCCC(C(=O)c3ccc(OC)c(F)c3)C2)cc1 (stereo unspecified) | 0.55 | – |
| CN(CCc1nc2cc(F)ccc2[nH]1)C(=O)Cn1nnnc1CN1CCCCCC1 | – | 0.815 |
| O=C(NC1CCCCC1)c1cn(C2CC2)cc(C(=O)N2CCOc3ccc(Cl)cc3C2)c1=O | – | 0.653 |
| Cc1n[nH]cc1C(=O)N1CCC(C2CCN(c3ncccn3)CC2)C1 (stereo unspecified) | – | 0.948 |
| COc1ccc(OC)c(C2CCN(C(=O)c3ccc4oc(C(C)C)nc4c3)C2)c1 (stereo unspecified) | – | 0.575 |
| CO[C@H]1[C@H](NC(=O)c2ccncc2)c2ccccc2C12CCN(C(=O)c1cc3cc(C)ccc3[nH]1)CC2 | – | 0.016 |
| CC(C)CCC1(C2CCN(C(=O)c3cc(C(C)C)on3)CC2)NC(=O)N(Cc2ccccn2)C1=O (stereo unspecified) | – | 0.889 |
| Cc1cnccc1CN(C)C(=O)CC(c1ccccc1)c1ccc2c(c1)OCO2 (stereo unspecified) | 0.701 | – |
| COc1cccc(CC2(CO)CCCN(Cc3c(OC)cc(OC)cc3OC)C2)c1 (stereo unspecified) | 0.989 | – |
| COCCNC(=O)c1ccc(OC2CCN(C(C)COC)CC2)c(Cl)c1 (stereo unspecified) | 1.24 | – |
| O=C1CCCN1CCC1CCCCN1Cc1nc(COc2ccccc2)no1 (stereo unspecified) | 0.689 | – |
| CN(C)CCC1CN(C(=O)C2CCCCC2)CCO1 (stereo unspecified) | – | 0.749 |
